Measured values published in paper PMC2811323 (The Journal of neuroscience : the official journal of the …, 2009).
Several values for one entry are separate records, joined by “and”; a condition that tells them apart may be missing. Equal entries are not always repeated. Where two headings read alike, the source gives them in different places.

What was measured:
[1] = system: rat mPFC layer V pyramidal cells; experiment: Inward; type: cell-based
[2] = system: rat mPFC layer V pyramidal cells; experiment: Spontaneous EPSCs in acute rat brain slices; type: cell-based
[3] = system: mPFC layer V neurons, wildtype (WT) mice; experiment: Spontaneous EPSCs in slices from wild-type mice; type: cell-based, mouse
[4] = system: PC12 N21 cells stably expressing human Swedish mutation APP and human M1 muscarinic receptor; conditions: 30 μM BQCA with 50 nM CCh, 4 hr

## COc1ccc(Cn2cc(C(=O)[O-])c(=O)c3ccccc32)cc1.[Na+] [BQCA, Sodium 1-(4-methoxybenzyl)-4-oxo-1,4-dihydroquinoline-3-carboxylate]
[1]
  Inward current (change in holding current): 55.07 ± 6.28 pA
[1]; 10 μM applied alone, −70 mV, 1 μM TTX
  Inward current (change in holding current): 21.54 ± 2.42 pA
[2]
  sEPSC amplitude: 136.0 ± 15.3 % control and 108.3 ± 6.6 % control
[3]
  sEPSC amplitude: 97.3 ± 11.3 % control and 137.2 ± 16.7 % control
[4]
  APPsα levels in conditioned media: 244 % of vehicle-treated cells
  CTFα (C83) in cell extracts: 245 % of vehicle
  Decrease in the secretion of Aβ40 peptide: 30%
